The whole screen tested about 320,000 compounds, of which about 2,100 (0.66%) were called active. This list was built around the results that the source calls inconclusive (neither active nor inactive); the mix of calls is not that of the screen. Calls come from the whole dose curve; as a rule, active = well fitted inhibition curve with a large enough effect in the signal ratio, with a control signal flat (not every such curve was filed as active); inconclusive = small, poorly fitted or top-dose-only effect, or effect the other way, or a change in a side signal; inactive = flat fitted curve, though single readings scatter; the % refers to the signal ratio. A potency beside an inconclusive call is a rough fit, not a confirmed value.
Assay: qHTS Assay for Lipid Storage Modulators in Drosophila S3 Cells
Conditions: BODIPY lipid droplet fluorescence, 18-24 h, cells fed with added oleic acid; lipid storage change, negative = inhibition: at 46.1 µM (top of the series) unless noted
Procedure, shortened: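 Drosophila S3 cells loaded with oleic acid (400 uM, as added) and compounds at several concentrations; lipid droplets imaged by 488-nm laser-scanning cytometry, 500–530 nm intensity and object ratio to cell channel. Percent activity normalized to 20 uM Triacsin C.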
% is set by controls: 0 for no effect and ±100 for the full control effect; potency is the fitted concentration of half-maximal effect.

| Structure (SMILES) | lipid storage change, negative = inhibition | Potency | outcome |
| --- | --- | --- | --- |
| Cc1ccc(OCc2nn3c(-c4n[nH]c5c4CCC5)nnc3s2)cc1 | inconclusive: 17.1% |  |  |
| CC(=O)N1CCN(S(=O)(=O)c2cccc(C(=O)NC3CCCC3)c2)CC1 | inconclusive: 64.9% |  |  |
| CCCN(CC(=O)Nc1ccc(F)c(F)c1F)C(=O)c1cc([N+](=O)[O-])ccc1N1CCOCC1 | inconclusive: 58.1% |  |  |
| N#Cc1c2c(c(NCc3ccco3)n3c1nc1ccccc13)CCC2 | inconclusive: 5.84% |  |  |
| CCc1ccc(NC(=O)N(CCCN2CCOCC2)Cc2cccs2)cc1 | inconclusive: -2.22% |  |  |
| O=C(Cn1nnc(-c2ccccc2)n1)OC1CCOC1=O (configuration not stated) | inconclusive: -53.2% |  |  |
| COc1ccccc1-n1cnc2cc(NC(=O)c3ccco3)ccc21 |  | inconclusive: 7.31 µM [rising, partial curve] |  |
| O=C(O)Cc1ccc(NS(=O)(=O)c2ccc3ccccc3c2)cc1 | inconclusive: 19.8% |  |  |
| O=C(CC1OC(=O)c2ccccc21)NCC1COc2ccccc2O1 (configuration not stated) | inconclusive: 28.7% |  |  |
| COCCCNc1ncnc2nc[nH]c12 |  | inconclusive: 23.1 µM [falling, partial curve, poor fit] |  |
| O=C(NCC(c1cccs1)N1CCOCC1)c1cc(S(=O)(=O)N2CCOCC2)c(Cl)cc1Cl (configuration not stated) | inconclusive |  |  |
| CCOc1ccc(C2NC(=O)c3ccccc3O2)cc1 (configuration not stated) | inconclusive: 35.2% |  |  |
| CCCCCCc1c(O)c2ccccc2[nH]c1=O | inconclusive: -0.514% |  |  |
| CCN(CC)P(=O)(Nc1ccc(Br)cc1)c1c(C)nn(CCC#N)c1NC(=O)c1ccc(Cl)cc1 (configuration not stated) | inconclusive: -40.4% |  |  |
| CNc1c(NS(=O)(=O)c2ccc(F)cc2)c(=O)oc2ccccc12 | inconclusive: -62% |  |  |
| CCc1ccc(N2C(=O)c3cc(N4CCOCC4)c([N+](=O)[O-])cc3C2=O)cc1 |  | inconclusive: 29.1 µM [activator, single point] |  |
| O=C(Nn1c(-c2ccccc2)nc2ccccc2c1=O)c1ccco1 | inconclusive: 10.9% |  |  |
| CCc1cc(C(=O)N(CCCOC)c2c(N)n(Cc3ccccc3)c(=O)[nH]c2=O)sc1C | inconclusive: 31.7% |  |  |
| COc1ccc(C(NC(=O)CN2CCCCCC2)c2ccc(OC)cc2)cc1 | inconclusive: 9.62% |  |  |
| COc1ccc(-c2ccc(SCc3cccnc3)nn2)cc1OC |  | inconclusive: 29.1 µM [activator, single point] |  |
| COCCn1c(C)cc(C(=O)COc2ccc(N(C)S(=O)(=O)c3ccc(C)cc3)cc2)c1C | inconclusive: -31.1% |  |  |
| Cc1cc(C)c(C(=O)N2CCC(N3CCC(C(=O)NC(C)C)CC3)CC2)o1 | inconclusive: 1.36% |  |  |
| O=C(CCc1nc2ccccc2s1)N1CCN(c2ccccc2)CC1 | inconclusive: 45.4% |  |  |
| Cc1cc(O)cc(O)c1C(=O)Cc1cscn1 | inconclusive: 18.3% |  |  |
| CSc1ccc(CN(C)CC(=O)NCCc2ccccc2)cc1 | inconclusive: -63.3% |  |  |
| CN(C)c1ccc(-c2noc(-c3ccccc3O)n2)cc1 | inconclusive: 2.15% |  |  |

Entries of single compounds from above:
CCCCCCc1c(O)c2ccccc2[nH]c1=O as listed: lipid storage change, negative = inhibition: inconclusive: -0.514%
N#Cc1c2c(c(NCc3ccco3)n3c1nc1ccccc13)CCC2 as listed: lipid storage change, negative = inhibition: inconclusive: 5.84%
CCc1ccc(NC(=O)N(CCCN2CCOCC2)Cc2cccs2)cc1 as listed: lipid storage change, negative = inhibition: inconclusive: -2.22%
O=C(CC1OC(=O)c2ccccc21)NCC1COc2ccccc2O1 (configuration not stated) as listed: lipid storage change, negative = inhibition: inconclusive: 28.7%

Next part.

| Structure (SMILES) | lipid storage change, negative = inhibition | Potency | outcome |
| --- | --- | --- | --- |
| C=CCSc1nc(C)c(CCCC)c(=O)[nH]1 | inconclusive: 23.8% |  |  |
| O=C(CNc1ccccc1Cl)c1ccc(Br)cc1 |  | inconclusive: 29.1 µM [falling, single point] |  |
| O=C1C2C3C=CC(C3)C2C(=O)N1c1ccccc1OS(=O)(=O)c1ccccc1 (configuration not stated) | inconclusive: 13.6% |  |  |
| CN(CCc1ccccn1)C1CCCN(S(=O)(=O)c2ccc(F)c(Cl)c2)C1 (configuration not stated) |  | inconclusive: 6.51 µM [falling, single point] |  |
| CCn1c(O)c(N=N)c2ccccc21 | inconclusive: -20.7% |  |  |
| Cc1ccc(S(=O)(=O)NCc2ccccc2)cc1C(=O)N(C)CC(=O)Nc1c(Cl)cccc1Cl |  |  | inactive [at 46.1 µM] |
| COC(=O)C1=C(C)N(Cc2ccc(C)cc2)C(=O)/C1=C\c1cc(OC)c(OC)c(OC)c1 | inconclusive: -56.5% |  |  |
| CCOc1cc(CN2CCN(c3cccc(C(F)(F)F)c3)CC2)ccc1OC |  | inconclusive: 20.6 µM [rising, partial curve] |  |
| CC(C)(C)C1CCc2c(C(=O)N/N=C/c3cccs3)csc2C1 (configuration not stated) |  | inconclusive: 18.4 µM [falling, partial curve, poor fit] |  |
| CN(CC1CCCO1)S(=O)(=O)c1ccc(C(=O)Nc2ccc(F)cc2)cc1 (configuration not stated) |  | active: 23.1 µM |  |
| O=C(O)C1(c2ccccc2)CCN(S(=O)(=O)c2ccc(Br)cc2)CC1 | inconclusive: -45.5% |  |  |
| CC(C)C[C@H](NC(=O)c1nc[nH]c1C(=O)N1CCN(c2ccccc2)CC1)C(=O)OCc1ccccc1 | inconclusive: 23% |  |  |
| CCOC(=O)N1CCC(NC(=S)Nc2ccc3nc(N4CCN(CC)CC4)cc(C)c3c2)CC1 | inconclusive: 28% |  |  |
| CC1=C([N+](=O)[O-])C(c2cccc(Br)c2)C2=C(N1)c1ccccc1C2=O (configuration not stated) |  | inconclusive: 0.146 µM [activator, full curve, poor fit] |  |
| COc1ccccc1C(=O)NCCC(=O)NCC1COc2ccccc2O1 (configuration not stated) |  | active: 20.6 µM |  |
| COc1ccc(NC(=O)C2CCCN(S(=O)(=O)c3ccc4[nH]c(=O)ccc4c3)C2)cc1OC (configuration not stated) |  | inconclusive: 6.51 µM [falling, single point] |  |
| FC(F)(F)c1cccc(OCc2nnc3n2CCC3)c1 | inconclusive: -0.273% |  |  |
| CCOc1ccc(CC(=O)Nc2sc(Cc3ccccc3)cc2C(N)=O)cc1OCC |  | inconclusive: 0.0046 µM [activator, full curve, poor fit] |  |
| COc1ccc(-c2nc(CS(=O)CC(=O)NCCCN3CCOCC3)c(C)o2)cc1OC (configuration not stated) | inconclusive: -50.6% |  |  |
| NC(=O)c1ccc(Cn2c(C(=O)c3ccc(Cl)cc3)c3ccccc3[n+]2[O-])cc1 | inconclusive: -3.42% |  |  |
| O=C(NCCn1c(C(F)(F)F)nc2ccccc21)[C@H]1CCCN1c1nc(CN2CCCCC2)cs1 |  | inconclusive: 13 µM [activator, partial curve, poor fit] |  |
| COc1ccc(Nc2nnc(-c3ccncc3)s2)cc1Cl | inconclusive: 26.5% |  |  |
| Cc1ccc2c(NC(=S)NC(=O)c3ccccc3)cccc2n1 |  | inconclusive: 3.26 µM [rising, partial curve] |  |
| COc1cccc(CN2CCc3ccc(NC(=O)CCc4ccc(C)cc4)cc3C2)c1O | inconclusive: 17.4% |  |  |
| Cc1ccnc(NS(=O)(=O)c2cnc(Cl)c(Br)c2)c1 | inconclusive: -4.83% |  |  |
| CCOc1ccccc1NC(=O)CSc1n[nH]c(N)n1 | inactive: 7.41% |  |  |

| Structure (SMILES) | lipid storage change, negative = inhibition | Potency | outcome |
| --- | --- | --- | --- |
| CCN(CC)c1ccc(CN(C(=O)c2cccs2)C2CCS(=O)(=O)C2)cc1 (configuration not stated) |  | inconclusive: 0.082 µM [falling, full curve, poor fit] |  |
| CC(=O)Nc1ccc(NC(=O)c2nc(-c3ccccc3)oc2C)cc1 | inconclusive: -6.53% |  |  |
| CCn1cc(S(=O)(=O)Nc2cccnc2)cn1 | inconclusive: -100% |  |  |
| CC(=O)Oc1ccc(C(=O)Nc2cc(C)on2)cc1 | inconclusive: 67.7% |  |  |
| COc1cccc(Oc2coc3cc(OC(=O)N4CCOCC4)ccc3c2=O)c1 | inconclusive: -30.2% |  |  |
| CSc1ccccc1NC(=O)CN(C)C(=O)c1ccc(-n2cccn2)cc1 | inconclusive: 27.8% |  |  |
| O=C(C1CC1)N1CCc2cc(Br)cc(S(=O)(=O)NCc3ccc4c(c3)OCO4)c21 | inconclusive: 5.67% |  |  |
| COc1ccccc1N1C(=O)[C@@H]2[C@H](C1=O)[C@H](C(=O)c1ccc(OC(C)=O)cc1)N1N=CC=C[C@@H]21 | inconclusive: 8.36% |  |  |
| CCOC(=O)N1CCc2c(sc(NC(=O)c3ccc(Cl)s3)c2C(N)=O)C1 |  | inconclusive: 29.1 µM [falling, single point] |  |
| O=S(=O)(Nc1ccc(O)c2ccccc12)c1cccs1 |  | inconclusive: 1.84 µM [activator, partial curve] |  |
| CC(C)(C)C(C(Oc1ccc(Cl)cc1)n1cncn1)n1nnnc1C(c1cccc(Cl)c1)N1CCCCC1 (configuration not stated) | inconclusive: -19.7% |  |  |
| CCCCCCCCc1nc(SC(C)C(=O)O)n[nH]1 (configuration not stated) | inconclusive: 4.39% |  |  |
| Cc1ccc(OCC(=O)Nc2ccc(N3CCN(C(=O)c4ccco4)CC3)cc2)cc1C | inconclusive: 18.4% |  |  |
| NC(=O)c1ccccc1N/C=C1\CCCCC1=O | inconclusive: -8.3% [at 9.22 µM] |  |  |
| O=C(O)CC(CP(=O)(c1ccccc1)c1ccccc1)C(=O)O (configuration not stated) | inconclusive: -18.9% |  |  |
| COCCNC(=O)c1cn(C)c2ccc(S(=O)(=O)N(C)C3CCCCC3)cc2c1=O |  | inconclusive: 2.91 µM [activator, single point] |  |
| COc1ccccc1NC(=O)NCCCl | inconclusive: 8.68% |  |  |
| Cc1ccc2cccc(OCCOCCOc3ccccc3Br)c2n1 | inconclusive: 31.8% |  |  |
| CC(C)c1ccc(Nc2nc(Cl)nc(NCCO)n2)cc1 | inconclusive: 16.6% |  |  |
| COC(=O)CSc1nc(C)cc(C)n1 | inconclusive: 18.1% |  |  |
| Cc1cc(OCC(=O)Nc2cc(S(=O)(=O)N3CCOCC3)ccc2N2CCCC2)ccc1C(C)C | inconclusive |  |  |
| CCc1nn(CC(=O)NCCCN2CCN(C)CC2)c(=O)c2cc3occc3n12 |  | inconclusive: 0.58 µM [activator, single point] |  |
| O=C(CCS(=O)(=O)c1ccccc1)Nc1ccc(-c2nc3ccccc3s2)cc1 | inconclusive: -11% |  |  |
| COc1ccc(S(=O)(=O)NCC(c2ccc3c(c2)OCO3)N2CCN(c3ccccc3)CC2)cc1 (configuration not stated) |  | inconclusive: 0.92 µM [falling, full curve, poor fit] |  |
| CCOC(=O)CSc1nnc(CNc2cccc(Cl)c2)n1-c1ccccc1 |  | inconclusive: 3.26 µM [falling, partial curve, poor fit] |  |
